Measured values from the supplement of paper PMC7125110.
± gives the standard error. Many of these values have a large error.

B1: glmS ribozyme (parent)
chain: AUAAAAGCGCCAGAACUACAGAAAUGUAGUUGACGAGGAGGAGGUUUAUCGAAUUUUCGGCGGAUGCCUCCAAA

Variants of: B1
Experiment: KM; higher = weaker cofactor use; RNA array
Conditions: with glucosamine-6-phosphate
How it was run: (§1)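 Glucosamine-6-phosphate (40 μM to 10 mM) in HEPES/KCl/Mg(OAc)2 buffer was flowed over sequenced MiSeq chips, and tiles were imaged over ~14 h. Barcoded ribozyme variants there had been transcribed in situ by E. coli RNA polymerase and were tracked through a hybridised Cy3 probe at 37 °C. One- or two-exponential decay fits to per-tile medians, normalised to baseline and to non-cleaving reference variants, gave kobs. kcat and KM came from weighted Michaelis–Menten fits across concentrations.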

Row | Variant | KM [µM]
1 | U54G U55A C70G | 46.3 ± 35
2 | A53U U55A | 3780 ± 2200
3 | G51U C71U | 20.8 ± 18
4 | A42U U54C | 1140 ± 660
5 | U45A A48G | 1450 ± 820
6 | U45A U65C | 1770 ± 290
7 | U54A A64U | 606 ± 450
8 | G41C C71A | 609 ± 480
9 | U45A U49G | 1560 ± 570
10 | C58A C61A | 31.4 ± 21
11 | A42U U46A | 4410 ± 1900
12 | U54C | 2290 ± 240
13 | U54G | 1870 ± 470
14 | U54A | 2360 ± 680
15 | U54G C58U | 6130 ± 820
16 | U46G U47A | 2200 ± 1400
17 | G60A | 457 ± 330
18 | G60C | 1990 ± 1700
19 | G32C U47A | 1450 ± 320
20 | G40U U57A | 16800 ± 2900

Row | Variant | KM [µM]
21 | G43U U55C | 177 ± 140
22 | A52G C70A | 59.1 ± 34
23 | A39C U56G | 4460 ± 1800
24 | A48C U54C | 2490 ± 1300
25 | U46G C70A | 354 ± 280
26 | U31A G66U | 1380 ± 190
27 | C68G U69C | 97.5 ± 54
28 | G40C U47G | 1190 ± 440
29 | C67G C70U | 1750 ± 88
30 | G32C | 3460 ± 110
31 | G32A | 4250 ± 750
32 | U45C A53G | 3250 ± 1900
33 | U49G U55G | 1400 ± 250
34 | A42U U69G | 388 ± 270
35 | U45A G59A | 15500 ± 6800
36 | A36U A52G | 766 ± 740
37 | A39C C67G | 2120 ± 1200
38 | G44A U54G | 936 ± 680
39 | U45G U54G | 3940 ± 2400
40 | G43A A53C | 20700 ± 1600

Row | Variant | KM [µM]
41 | A42G U65A | 1560 ± 860
42 | U31A A39G | 4340 ± 1300
43 | G43A U45A | 2720 ± 100
44 | A33U U56A | 7840 ± 7800
45 | G32A C58U | 1170 ± 720
46 | G37C U54A U69G | 146 ± 130
47 | A42G U56G | 925 ± 600
48 | A42C U46A | 640 ± 380
49 | G41U U45G | 909 ± 340
50 | G41C A52U | 808 ± 440
51 | U56C G66A | 4140 ± 2400
52 | A42U C67A | 1400 ± 460
53 | U57C A64G | 3140 ± 87
54 | U55A A64C | 2210 ± 1300
55 | A53C C58U | 11600 ± 5100
56 | U54A G59U | 23800 ± 5000
57 | A52U A64G | 2510 ± 1700
58 | U56G C71A | 422 ± 340
59 | U30C U46G | 5040 ± 1000

Nothing new here: entries from further up.
Row | Variant | KM [µM]
40 | G43A A53C | 20700 ± 1600
41 | A42G U65A | 1560 ± 860
42 | U31A A39G | 4340 ± 1300
43 | G43A U45A | 2720 ± 100
44 | A33U U56A | 7840 ± 7800
45 | G32A C58U | 1170 ± 720
46 | G37C U54A U69G | 146 ± 130
47 | A42G U56G | 925 ± 600
48 | A42C U46A | 640 ± 380
49 | G41U U45G | 909 ± 340
50 | G41C A52U | 808 ± 440
51 | U56C G66A | 4140 ± 2400
52 | A42U C67A | 1400 ± 460
53 | U57C A64G | 3140 ± 87
54 | U55A A64C | 2210 ± 1300
55 | A53C C58U | 11600 ± 5100
56 | U54A G59U | 23800 ± 5000
57 | A52U A64G | 2510 ± 1700
58 | U56G C71A | 422 ± 340
59 | U30C U46G | 5040 ± 1000

Variants of: B1
Experiment: self-cleavage kobs at 40 uM GlcN6P; higher = faster cleavage; RNA array
Conditions: with glucosamine-6-phosphate
How it was run: as §1

Row | Variant | self-cleavage kobs at 40 uM GlcN6P [s⁻¹]
60 | C11U C70G C71U | 1.95e-05 ± 1.9e-05
61 | C11U G35U U69A | 2.43e-05 ± 1.9e-05
62 | C8U C61A C68U | 3.32e-05 ± 2.7e-05
63 | A15G C58G C68U | 5.22e-05 ± 3.3e-05
64 | C11U G29C C50G C68G | 2.13e-05 ± 1.3e-05
65 | C8U G32U C50G | 4.27e-05 ± 2.4e-05
66 | C16A A39U | 1.42e-05 ± 9.9e-06
67 | C11G A36G A52G C70A | 3.6e-05 ± 1.9e-05
68 | A15G A52G | 2.18e-05 ± 1.7e-05
69 | C11A U69C | 2.92e-05 ± 2.6e-05
70 | A14G C70U C71G | 1.28e-05 ± 1.2e-05
71 | A14U U49A C50G C61A | 4.14e-05 ± 3e-05
72 | A6G C11U U31C U56A U69G | 2.63e-05 ± 2.3e-05
73 | G44A U54G | 1.33e-05 ± 1e-05
74 | G7A C8G G9C C10G A12C G13A A14G C16A U17C C67G | 2.42e-05 ± 1.9e-05
75 | A15G A52G C67U C71G | 3.07e-05 ± 2.3e-05
76 | C10A C16G C50A C58G C61U | 3.7e-05 ± 2.1e-05
77 | A6G U30G C50G A64U | 4.35e-05 ± 2.8e-05
78 | A6U C10G G62U C67G C71G | 4.02e-05 ± 2.5e-05

Variants of: B1
Experiment: self-cleavage kobs at 2500 uM GlcN6P; higher = faster cleavage; RNA array
Conditions: with glucosamine-6-phosphate
How it was run: as §1

Row | Variant | self-cleavage kobs at 2500 uM GlcN6P [s⁻¹]
79 | C11U C70G C71U | 3.68e-05 ± 1.9e-05
80 | C68G U69C | 1.67e-05 ± 1.7e-05
81 | U54A G59U | 1.88e-05 ± 1.4e-05

Variants of: B1
Experiment: self-cleavage kobs at 10000 uM GlcN6P; higher = faster cleavage; RNA array
Conditions: with glucosamine-6-phosphate
How it was run: as §1

Row | Variant | self-cleavage kobs at 10000 uM GlcN6P [s⁻¹]
82 | C11U G35U U69A | 3.07e-05 ± 1.6e-05
83 | A39C C67G | 0.00295 ± 0.002
84 | G43A A53C | 2.16e-05 ± 1.2e-05
85 | C10A C16G C50A C58G C61U | 2.69e-05 ± 1.7e-05
86 | A33U U56A | 1.96e-05 ± 1.1e-05
87 | G41C A52U | 1.17e-05 ± 7.6e-06
88 | A53C C58U | 1.77e-05 ± 1.2e-05
89 | U30C U46G | 2.18e-05 ± 1.2e-05

Variants of: B1
Experiment: self-cleavage kobs at 160 uM GlcN6P; higher = faster cleavage; RNA array
Conditions: with glucosamine-6-phosphate
How it was run: as §1

Row | Variant | self-cleavage kobs at 160 uM GlcN6P [s⁻¹]
90 | U45A A48G | 2.71e-05 ± 1.5e-05
91 | G41C C71A | 1.26e-05 ± 1.2e-05
92 | C67G C70U | 1.23e-05 ± 1.2e-05
93 | G32C | < 1e-05

Variants of: B1
Experiment: self-cleavage kobs at 640 uM GlcN6P; higher = faster cleavage; RNA array
Conditions: with glucosamine-6-phosphate
How it was run: as §1

Row | Variant | self-cleavage kobs at 640 uM GlcN6P [s⁻¹]
94 | A42U U46A | 1.51e-05 ± 8.9e-06
95 | G43U U55C | 2.83e-05 ± 1.6e-05
96 | G37C U54A U69G | 2.76e-05 ± 2.2e-05
